Source: PubChem BioAssay AID485314 (National Center for Advancing Translational Sciences (NCATS), 2010)
“And” between values parts separate entries of the source, which are not always exact repeats. Identical values can stand only once. The whole screen tested about 340,000 compounds, of which about 4,500 (1.3%) were called active. The shares of active, inactive and inconclusive entries below differ from those in the screen. The call rests on the fitted dose curve; in most records, active means well fitted inhibition curve with a large enough effect; inconclusive means small, poorly fitted or top-dose-only effect, or another doubt; inactive means no such curve, though single readings can be large or run the other way. Potencies beside an inconclusive call are fits to weak or partial responses and may not hold up.

Target: DNA polymerase beta (Homo sapiens) (UniProt P06746)
Experiment: qHTS Assay for Inhibitors of DNA Polymerase Beta
Settings: Pol beta primer extension/strand displacement, fluorescence kinetic; activity change, negative = inhibition: at 114 µM (top of the series)
Method in brief: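 Enzyme-only controls used 10 nM Pol beta; buffer lacking enzyme served as negative control. Compound preincubated 15 min, then 50 nM substrate added; 0 and 10 min reads at room temperature.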
On the % scale 0 is the no-effect control and ±100 the full control effect; potency means the concentration at half of the fitted maximal effect.

Row | Structure (SMILES) | Potency | activity change, negative = inhibition
1 | CC(C)Oc1cc2oc(=O)c3c(c2cc1Cl)CCC3 | inconclusive: 89.1 µM [inhibitor, single point] | –
2 | CC(C)(C)c1ccc(OCCSc2nc(-c3cccs3)nc3cc(=O)[nH]n23)cc1 | active: 31.6 µM | –
3 | COCCn1c(=NC(=O)c2cc3ccccc3oc2=O)sc2cc(S(N)(=O)=O)ccc21 | inconclusive: 31.6 µM [inhibitor, single point] | –
4 | O=C(Cn1ncc2c3ccccc3n(Cc3ccc(Cl)cc3)c2c1=O)NCCCc1ccccc1 | inconclusive: 50.1 µM [inhibitor, partial curve] | –
5 | CC(C)c1ccc(Nc2cc(C(=O)NCCc3ccccc3)c3ccccc3n2)cc1 | inconclusive: 79.4 µM [inhibitor, single point] | –
6 | Cc1cccn2c(=O)c3cc(C(=O)NCCc4ccc(S(N)(=O)=O)cc4)n(C)c3nc12 | inconclusive: 10 µM [inhibitor, full curve] | –
7 | NC1=NC(=O)/C(=C/c2cc(Br)c(O)c(Br)c2)S1 | – | inactive: 29.5%
8 | CCOC(=O)COc1c(Br)cc(C2NC(=O)NC(C)=C2C(C)=O)cc1OC (centres undefined) | inconclusive: 15.8 µM [inhibitor, partial curve, poor fit] | –
9 | O=C(Nc1ccc(O)c2c(=O)cc(-c3ccccc3Cl)oc12)c1ccc(Cl)c(Cl)c1 | – | inactive: -13.3%
10 | CN(C)C(=O)c1ccc2c(c1)N(CC(=O)NCc1ccc(F)cc1)C(=O)C1CCCCN21 (centres undefined) | inconclusive: 89.1 µM [inhibitor, single point] | –
11 | O=C(N=Nc1ccc(NOC(=O)c2ccccc2Br)cc1)c1ccccc1O | inconclusive: 56.2 µM [inhibitor, partial curve, poor fit] | –
12 | COCCN=c1scc(-c2cccs2)n1/N=C/c1ccc(O)c(O)c1O | active: 4.47 µM | –
13 | CN1/C(=C\C=C2/SC(=S)N(CC(=O)O)C2=O)C(C)(C)c2ccccc21 | active: 39.8 µM | –
14 | Oc1ccc(N=Cc2c(O)ccc3ccccc23)cc1 | inconclusive: 89.1 µM [inhibitor, single point] | –
15 | Cc1nnc2ccc(-c3ccc(NC(=O)Cc4cccs4)cc3)nn12 | – | inconclusive: -91.5% [inhibitor]
16 | COc1cccc(NC(C(=O)Nc2cccc(C(C)=O)c2)c2ccccc2)c1 (centres undefined) | inconclusive: 10 µM [inhibitor, partial curve] | –
17 | Cc1ccccc1C(=O)N1CCc2c([nH]c3ccccc23)C1C(F)(F)F (centres undefined) | inconclusive: 89.1 µM [inhibitor, single point] | –
18 | O=C(COC(=O)/C=C/c1cccs1)Nc1cccc(S(=O)(=O)N2CCCC2)c1 | inconclusive: 89.1 µM [inhibitor, single point] | –
19 | O=C(O)CCNc1cc(N2CCN(C(=O)c3ccco3)CC2)c2noc3c2c1C(=O)c1ccccc1-3 | active: 17.8 µM | –
20 | CC1(C)CC(=O)C=C(Nc2ccc(O)c(C(=O)O)c2)C1 | – | inactive: -11.7%
21 | O=C(Nc1ncnc2sc3c(c12)CCCC3)c1ccncc1 | – | inactive: 8.26%
22 | CC(C)CNc1ncnc2c1cnn2Cc1ccccc1Cl | inconclusive: 39.8 µM [inhibitor, single point] | –
23 | COc1ccccc1NC(=S)N1CCN(c2ccccc2F)CC1 | – | inactive: 6.28%
24 | O=C(Nc1ccc(NC(=S)NC(=O)c2cccs2)cc1)c1ccco1 | inconclusive: 11.2 µM [inhibitor, full curve] | –
25 | Cc1cccc(N(Cc2ccc(Cl)cc2)S(C)(=O)=O)c1 | inconclusive: 0.708 µM [inhibitor, full curve, poor fit] | –

Row | Structure (SMILES) | Potency | activity change, negative = inhibition
26 | COC(=O)c1c(C)[nH]c(O)c1C=Nc1ccc(C#N)cc1 | inconclusive: 0.141 µM [inhibitor, full curve, poor fit] | –
27 | O=c1cc2nc(-c3ccccc3)nc(SCc3cccc(Br)c3)n2[nH]1 | inconclusive: 56.2 µM [inhibitor, partial curve, poor fit] | –
28 | COc1ccc2c(c1)CCN1C2CCN2C(=O)CCC21 (centres undefined) | – | inactive: 4.48%
29 | CC1=CC(=O)c2c(O)ccc(O)c2C1=O | active: 1.78 µM | –
30 | CCC(CO)Nc1ccc(-c2n[nH]c(=O)c3ccccc23)cc1[N+](=O)[O-] (centres undefined) | inconclusive: 3.55 µM [inhibitor, full curve] | –
31 | CCc1ccc(OCC(=O)NCC(c2ccc(Cl)cc2)N2CCOCC2)cc1 (centres undefined) | – | inactive: 6.86%
32 | O=S(=O)(Nc1ccc(-c2ccc(N3CCCCCC3)nn2)cc1)c1ccc(C(F)(F)F)cc1 | – | inactive: 0.422%
33 | COc1ccc(Nc2ncnc3c2cnn3C)c(OC)c1 | – | inactive: -6.82%
34 | CCOn1c(=O)c(-c2cc(OC)ccc2OC)[n+]([O-])c2ccccc21 | inconclusive: 28.2 µM [inhibitor, single point] | –
35 | Cc1cc(C(F)(F)F)c2c(N)c(C(=O)Nc3c(Cl)cccc3Cl)sc2n1 | – | inactive: 6.85%
36 | CCCCN(CCCC)C(=O)c1cc2c(=O)n3ccccc3nc2s1 | – | inactive: -4.98%
37 | COc1cccc(CNC(=O)Cn2cccc2)c1 | inconclusive: 3.98 µM [inhibitor, full curve] | –
38 | Cc1ccc(NC(=O)C2CC(=O)N(C(C)C)C2)cc1Cl (centres undefined) | – | inactive: -4.65%
39 | COc1ccc2nc3oc(C(=O)NCc4cccs4)cc3cc2c1 | inconclusive: 28.2 µM [inhibitor, full curve] | –
40 | Cc1cc(C(=O)OCC(=O)c2ccc(Br)s2)no1 | inconclusive: 44.7 µM [inhibitor, partial curve, poor fit] | –
41 | CC1CCCCN1S(=O)(=O)c1ccc2[nH]c(=O)cc(C(=O)NCCc3ccc(Cl)cc3)c2c1 (centres undefined) | inconclusive: 25.1 µM [inhibitor, full curve] | –
42 | CCn1c(SCC(=O)c2ccc(CNC(C)=O)o2)nnc1-c1cccs1 | active: 44.7 µM | –
43 | CCN(CC)S(=O)(=O)c1ccc(OC(C)C)c(N)c1 | inconclusive: 0.562 µM [inhibitor, full curve, poor fit] | –
44 | CC(C)(C)NC(=O)CCSc1nnc(-c2ccco2)o1 | – | inactive: -1.46%
45 | Cc1ccc2c(C)c(C(=O)Nc3nnc(C)s3)oc2c1 | inconclusive: 5.62 µM [inhibitor, full curve, poor fit] | –
46 | Cc1nc(SCCOc2ccc(Cl)cc2)[nH]c(=O)c1Cc1ccccc1 | – | inactive: 7.28%
47 | COc1ccccc1NC(=S)N(Cc1ccc(Cl)cc1)CC1CCC(C(=O)O)CC1 (centres undefined) | – | inactive: 2.95%
48 | O=C(O)CN1C(=O)/C(=C\c2cc(Br)ccc2OCc2ccc(Cl)cc2Cl)SC1=S | active: 22.4 µM | –
49 | COc1cc(Br)cc(/C=C/c2ccc3cccc(O)c3n2)c1O | – | inconclusive: -77% [inhibitor]
50 | COc1ccc(-n2cc(C(=O)Nc3ccccc3C#N)c3ccccc3c2=O)cc1 | – | inactive: 12.2%

Row | Structure (SMILES) | Potency | activity change, negative = inhibition
51 | CCCOc1ccc(CNC(=O)Cn2c(=O)oc3ccccc32)cc1 | inconclusive: 100 µM [inhibitor, single point] | –
52 | O=C(O)CSc1ccccc1C(=O)O | – | inactive: -0.411%
53 | CN1CCc2cc(NC(=O)Nc3cccnc3)ccc21 | – | inactive: -10.5% [at 57.1 µM]
54 | Cn1cc(CN2CCCCC2c2ccccn2)c(-c2ccc3c(c2)OCCO3)n1 (centres undefined) | inconclusive: 89.1 µM [inhibitor, single point] | –
55 | CCCOc1ccc(C2C(=O)N(C3CCCCC3)CC(=O)N2CCC2=CCCCC2)cc1OC (centres undefined) | – | inactive: 3.89%
56 | CSC1=NSC2=NC(=O)/C(=C/c3coc4ccccc4c3=O)C(=N)N12 | active: 39.8 µM | –
57 | COc1ccc(NS(=O)(=O)c2ccc3c(c2)n(C)c(=O)c(=O)n3C)cc1Cl | – | inactive: 32.8%
58 | CCCNS(=O)(=O)c1ccc(OC)c(Cl)c1Cl | inconclusive: 79.4 µM [inhibitor, single point] | –
59 | COc1cc(-c2nc3cnccn3c2Nc2ccc(C(C)C)cc2)ccc1O | inconclusive: 25.1 µM [inhibitor, single point] and inconclusive: 20 µM [inhibitor, full curve] | –
60 | COc1cc(/C=C(\C#N)C(=O)c2ccc(O)c(O)c2)cc(I)c1O | active: 0.597 µM | –
61 | Cc1ccc(/C(C#N)=C\c2ccc(N3CCOCC3)o2)cc1 | – | inactive: 5.37%
62 | O=C1C2CC=C(Cl)CC2C(=O)N1c1ncn[nH]1 (centres undefined) | active: 28.2 µM | –
63 | O=C(CSc1nc(O)c(C/C=C/c2ccccc2)c(=O)[nH]1)Nc1cccc(F)c1 | inconclusive: 7.94 µM [inhibitor, single point] | –
64 | CCOc1cc(/C=C2/NC(=S)NC2=O)ccc1OCc1ccc([N+](=O)[O-])cc1 | inconclusive: 4.47 µM [inhibitor, single point] | –
65 | COc1cc(-c2noc(-c3ccc(N4CCCCC4)c([N+](=O)[O-])c3)n2)cc(OC)c1OC | active: 44.7 µM | –
66 | O=C(Nc1ccc2oc(-c3cc(Br)ccc3Cl)nc2c1)c1ccc2ccccc2c1 | – | inconclusive: -76.2% [inhibitor]
67 | COc1ccc(-c2n[nH]c(C)c2-c2ccc(Cl)cc2)c(O)c1OC | inconclusive: 89.1 µM [inhibitor, single point] | –
68 | CCc1ccc(NC(=O)CSc2nc(NS(=O)(=O)c3ccccc3)cc(=O)[nH]2)cc1 | active: 20 µM | –
69 | COc1cc(OC)cc(C(=O)Nc2nc(-c3nnn(-c4ccc(F)c(Cl)c4)c3C)ns2)c1 | active: 3.16 µM | –
70 | CC12CN3CC(C)(CN(C1)C3c1cc(Br)ccc1O)C2=O (centres undefined) | inconclusive: 79.4 µM [inhibitor, single point] | –
71 | N#Cc1c(N2CCCCC2)nc(N)c2c(N)nc(SCC(=O)O)cc12 | active: 35.5 µM | –
72 | COc1ccc(C(CC(=O)N2CCOCC2)c2c(OC)cc(OC)c3ccc(=O)oc23)cc1 (centres undefined) | inconclusive: 89.1 µM [inhibitor, single point] | –
73 | O=C(CSc1nc(-c2ccco2)nc2cc(=O)[nH]n12)Nc1ccccc1F | inconclusive: 50.1 µM [inhibitor, partial curve] | –
74 | Cc1ccc2nc(-c3sc4nc(C)cc(C)c4c3N)[nH]c2c1 | inconclusive: 63.1 µM [inhibitor, single point] | –
